# Measured values reported in the supplement of paper PMC11438910.
# This is one part of the list. Only a few entries rise above the background.
# Tests used:
# Test in all cases: fluorescence intensity of antibody binding to polysaccharide-coupled beads; higher = stronger binding
# [1] = molecular target: pneumococcal polysaccharide Pn23F
# [2] = molecular target: pneumococcal polysaccharide Pn24A
# [3] = molecular target: pneumococcal polysaccharide Pn24B
# [4] = molecular target: pneumococcal polysaccharide Pn24F
# [5] = molecular target: pneumococcal polysaccharide Pn25A
# [6] = molecular target: pneumococcal polysaccharide Pn25F
# [7] = molecular target: pneumococcal polysaccharide Pn27
# [8] = molecular target: pneumococcal polysaccharide Pn28A
# [9] = molecular target: pneumococcal polysaccharide Pn28F
# [10] = molecular target: pneumococcal polysaccharide Pn29
# [11] = molecular target: pneumococcal polysaccharide Pn3
# [12] = molecular target: pneumococcal polysaccharide Pn31
# [13] = molecular target: pneumococcal polysaccharide Pn32A
# [14] = molecular target: pneumococcal polysaccharide Pn32F
# [15] = molecular target: pneumococcal polysaccharide Pn33A
# [16] = molecular target: pneumococcal polysaccharide Pn33B
# [17] = molecular target: pneumococcal polysaccharide Pn33C
# [18] = molecular target: pneumococcal polysaccharide Pn33D
# [19] = molecular target: pneumococcal polysaccharide Pn33F
# [20] = molecular target: pneumococcal polysaccharide Pn34
# [21] = molecular target: pneumococcal polysaccharide Pn35A
# [22] = molecular target: pneumococcal polysaccharide Pn35B
# [23] = molecular target: pneumococcal polysaccharide Pn35C
# [24] = antibody concentration 2.8593 ng/mL
# [25] = antibody concentration 15.2894 ng/mL
# [26] = antibody concentration 81.7561 ng/mL
# [27] = antibody concentration 437.17 ng/mL
# [28] = antibody concentration 2337.65 ng/mL
# [29] = antibody concentration 12500 ng/mL
# [30] = antibody concentration 0.1 ng/mL
# [31] = antibody concentration 0.534724 ng/mL
binder,measurement,setting,value
4-99.1 (protein) chain 1: QVQLQESGPGLVKPSETLSLTCAVSGDSISSGYFWGWIRQPPGKGLEYIGYISGESGNTYDNPSLKSRVTISKDTSKNQFSLNLRSVTAADTAVYYCARRTVYIGFDYWGQGVLVTVSS chain 2: QAAPTQPPSVSGSPGQSVTISCTGTSSDIGYYNAVSWYQQHPGKAPKLMIYEVSKRPSGVSDRFSGSKSGTTASLTISGLQAEDEADYYCSSYAGTNTYIFGAGTRLTVL,fluorescence intensity,[1]; [24],17 MFI
same,fluorescence intensity,[1]; [25],18.5 MFI
same,fluorescence intensity,[1]; [26],19 MFI
same,fluorescence intensity,[1]; [27],20.5 MFI
same,fluorescence intensity,[1]; [28],20.8 MFI
same,fluorescence intensity,[1]; [29],32 MFI
same,fluorescence intensity,[2]; [30],15.5 MFI
same,fluorescence intensity,[2]; [31],15.5 MFI
same,fluorescence intensity,[2]; [24],15.5 MFI
same,fluorescence intensity,[2]; [25],15 MFI
same,fluorescence intensity,[2]; [26],15.5 MFI
same,fluorescence intensity,[2]; [27],16.8 MFI
same,fluorescence intensity,[2]; [28],18 MFI
same,fluorescence intensity,[2]; [29],30.5 MFI
same,fluorescence intensity,[3]; [30],17.2 MFI
same,fluorescence intensity,[3]; [31],19.5 MFI
same,fluorescence intensity,[3]; [24],18 MFI
same,fluorescence intensity,[3]; [25],17.5 MFI
same,fluorescence intensity,[3]; [26],19 MFI
same,fluorescence intensity,[3]; [27],20 MFI
same,fluorescence intensity,[3]; [28],25 MFI
same,fluorescence intensity,[3]; [29],60 MFI
same,fluorescence intensity,[4]; [30],17.8 MFI
same,fluorescence intensity,[4]; [31],19 MFI
same,fluorescence intensity,[4]; [24],20.8 MFI
same,fluorescence intensity,[4]; [25],18.5 MFI
same,fluorescence intensity,[4]; [26],18.2 MFI
same,fluorescence intensity,[4]; [27],22 MFI
same,fluorescence intensity,[4]; [28],26 MFI
same,fluorescence intensity,[4]; [29],45 MFI
same,fluorescence intensity,[5]; [30],23.8 MFI
same,fluorescence intensity,[5]; [31],26.5 MFI
same,fluorescence intensity,[5]; [24],24.5 MFI
same,fluorescence intensity,[5]; [25],23.5 MFI
same,fluorescence intensity,[5]; [26],25.5 MFI
same,fluorescence intensity,[5]; [27],27.5 MFI
same,fluorescence intensity,[5]; [28],29 MFI
same,fluorescence intensity,[5]; [29],34.5 MFI
same,fluorescence intensity,[6]; [30],32 MFI
same,fluorescence intensity,[6]; [31],30.5 MFI
same,fluorescence intensity,[6]; [24],32 MFI
same,fluorescence intensity,[6]; [25],30.5 MFI
same,fluorescence intensity,[6]; [26],31 MFI
same,fluorescence intensity,[6]; [27],32.5 MFI
same,fluorescence intensity,[6]; [28],35.5 MFI
same,fluorescence intensity,[6]; [29],50.8 MFI
same,fluorescence intensity,[7]; [30],16 MFI
same,fluorescence intensity,[7]; [31],19 MFI
same,fluorescence intensity,[7]; [24],17 MFI
same,fluorescence intensity,[7]; [25],18 MFI
same,fluorescence intensity,[7]; [26],16 MFI
same,fluorescence intensity,[7]; [27],20 MFI
same,fluorescence intensity,[7]; [28],38.8 MFI
same,fluorescence intensity,[7]; [29],274 MFI
same,fluorescence intensity,[8]; [30],28 MFI
same,fluorescence intensity,[8]; [31],27.5 MFI
same,fluorescence intensity,[8]; [24],27 MFI
same,fluorescence intensity,[8]; [25],28 MFI
same,fluorescence intensity,[8]; [26],26.2 MFI
same,fluorescence intensity,[8]; [27],27.5 MFI
same,fluorescence intensity,[8]; [28],29 MFI
same,fluorescence intensity,[8]; [29],39.5 MFI
same,fluorescence intensity,[9]; [30],29.2 MFI
same,fluorescence intensity,[9]; [31],29.5 MFI
same,fluorescence intensity,[9]; [24],29 MFI
same,fluorescence intensity,[9]; [25],29.8 MFI
same,fluorescence intensity,[9]; [26],30 MFI
same,fluorescence intensity,[9]; [27],31 MFI
same,fluorescence intensity,[9]; [28],35 MFI
same,fluorescence intensity,[9]; [29],124 MFI
same,fluorescence intensity,[10]; [30],15 MFI
same,fluorescence intensity,[10]; [31],16.2 MFI
same,fluorescence intensity,[10]; [24],17.5 MFI
same,fluorescence intensity,[10]; [25],17 MFI
same,fluorescence intensity,[10]; [26],16.5 MFI
same,fluorescence intensity,[10]; [27],17.5 MFI
same,fluorescence intensity,[10]; [28],28.8 MFI
same,fluorescence intensity,[10]; [29],168 MFI
same,fluorescence intensity,[11]; [30],16.8 MFI
same,fluorescence intensity,[11]; [31],34 MFI
same,fluorescence intensity,[11]; [24],118 MFI
same,fluorescence intensity,[11]; [25],280 MFI
same,fluorescence intensity,[11]; [26],510 MFI
same,fluorescence intensity,[11]; [27],2060 MFI
same,fluorescence intensity,[11]; [28],15500 MFI
same,fluorescence intensity,[11]; [29],10100 MFI
same,fluorescence intensity,[12]; [30],15 MFI
same,fluorescence intensity,[12]; [31],13 MFI
same,fluorescence intensity,[12]; [24],14.8 MFI
same,fluorescence intensity,[12]; [25],14.5 MFI
same,fluorescence intensity,[12]; [26],14.5 MFI
same,fluorescence intensity,[12]; [27],15 MFI
same,fluorescence intensity,[12]; [28],23.2 MFI
same,fluorescence intensity,[12]; [29],215 MFI
same,fluorescence intensity,[13]; [30],18.5 MFI
same,fluorescence intensity,[13]; [31],15.8 MFI
same,fluorescence intensity,[13]; [24],19.2 MFI
same,fluorescence intensity,[13]; [25],17.5 MFI
same,fluorescence intensity,[13]; [26],17.5 MFI
same,fluorescence intensity,[13]; [27],20 MFI
same,fluorescence intensity,[13]; [28],23.5 MFI
same,fluorescence intensity,[13]; [29],58 MFI
same,fluorescence intensity,[14]; [30],28.5 MFI
same,fluorescence intensity,[14]; [31],27.5 MFI
same,fluorescence intensity,[14]; [24],28.5 MFI
same,fluorescence intensity,[14]; [25],28.8 MFI
same,fluorescence intensity,[14]; [26],28.5 MFI
same,fluorescence intensity,[14]; [27],32.5 MFI
same,fluorescence intensity,[14]; [28],45 MFI
same,fluorescence intensity,[14]; [29],52 MFI
same,fluorescence intensity,[15]; [30],19 MFI
same,fluorescence intensity,[15]; [31],18.5 MFI
same,fluorescence intensity,[15]; [24],17.5 MFI
same,fluorescence intensity,[15]; [25],17.5 MFI
same,fluorescence intensity,[15]; [26],19 MFI
same,fluorescence intensity,[15]; [27],24 MFI
same,fluorescence intensity,[15]; [28],80.2 MFI
same,fluorescence intensity,[15]; [29],692 MFI
same,fluorescence intensity,[16]; [30],18.5 MFI
same,fluorescence intensity,[16]; [31],17.5 MFI
same,fluorescence intensity,[16]; [24],18 MFI
same,fluorescence intensity,[16]; [25],18 MFI
same,fluorescence intensity,[16]; [26],17.5 MFI
same,fluorescence intensity,[16]; [27],17.5 MFI
same,fluorescence intensity,[16]; [28],19.5 MFI
same,fluorescence intensity,[16]; [29],27 MFI
same,fluorescence intensity,[17]; [30],19.5 MFI
same,fluorescence intensity,[17]; [31],20 MFI
same,fluorescence intensity,[17]; [24],18.2 MFI
same,fluorescence intensity,[17]; [25],19 MFI
same,fluorescence intensity,[17]; [26],20 MFI
same,fluorescence intensity,[17]; [27],21 MFI
same,fluorescence intensity,[17]; [28],24 MFI
same,fluorescence intensity,[17]; [29],75.5 MFI
same,fluorescence intensity,[18]; [30],17 MFI
same,fluorescence intensity,[18]; [31],16.5 MFI
same,fluorescence intensity,[18]; [24],17.2 MFI
same,fluorescence intensity,[18]; [25],16.5 MFI
same,fluorescence intensity,[18]; [26],16 MFI
same,fluorescence intensity,[18]; [27],15.5 MFI
same,fluorescence intensity,[18]; [28],18 MFI
same,fluorescence intensity,[18]; [29],32.8 MFI
same,fluorescence intensity,[19]; [30],12.8 MFI
same,fluorescence intensity,[19]; [31],13.5 MFI
same,fluorescence intensity,[19]; [24],13.5 MFI
same,fluorescence intensity,[19]; [25],13.5 MFI
same,fluorescence intensity,[19]; [26],14 MFI
same,fluorescence intensity,[19]; [27],16.5 MFI
same,fluorescence intensity,[19]; [28],42.5 MFI
same,fluorescence intensity,[19]; [29],425 MFI
same,fluorescence intensity,[20]; [30],14 MFI
same,fluorescence intensity,[20]; [31],14 MFI
same,fluorescence intensity,[20]; [24],14 MFI
same,fluorescence intensity,[20]; [25],14.8 MFI
same,fluorescence intensity,[20]; [26],14 MFI
same,fluorescence intensity,[20]; [27],14.5 MFI
same,fluorescence intensity,[20]; [28],14.2 MFI
same,fluorescence intensity,[20]; [29],24.5 MFI
same,fluorescence intensity,[21]; [30],18 MFI
same,fluorescence intensity,[21]; [31],17.2 MFI
same,fluorescence intensity,[21]; [24],17 MFI
same,fluorescence intensity,[21]; [25],17 MFI
same,fluorescence intensity,[21]; [26],17 MFI
same,fluorescence intensity,[21]; [27],18 MFI
same,fluorescence intensity,[21]; [28],24.5 MFI
same,fluorescence intensity,[21]; [29],143 MFI
same,fluorescence intensity,[22]; [30],18.8 MFI
same,fluorescence intensity,[22]; [31],18.2 MFI
same,fluorescence intensity,[22]; [24],18.8 MFI
same,fluorescence intensity,[22]; [25],18 MFI
same,fluorescence intensity,[22]; [26],18 MFI
same,fluorescence intensity,[22]; [27],19.5 MFI
same,fluorescence intensity,[22]; [28],26 MFI
same,fluorescence intensity,[22]; [29],85.5 MFI
same,fluorescence intensity,[23]; [30],20 MFI
same,fluorescence intensity,[23]; [31],20 MFI
same,fluorescence intensity,[23]; [24],19 MFI
same,fluorescence intensity,[23]; [25],21 MFI
same,fluorescence intensity,[23]; [26],20.5 MFI
same,fluorescence intensity,[23]; [27],21.5 MFI

# 2 entries from above, with bars between the fields.
binder | measurement | setting | value
4-99.1 (protein) chain 1: QVQLQESGPGLVKPSETLSLTCAVSGDSISSGYFWGWIRQPPGKGLEYIGYISGESGNTYDNPSLKSRVTISKDTSKNQFSLNLRSVTAADTAVYYCARRTVYIGFDYWGQGVLVTVSS chain 2: QAAPTQPPSVSGSPGQSVTISCTGTSSDIGYYNAVSWYQQHPGKAPKLMIYEVSKRPSGVSDRFSGSKSGTTASLTISGLQAEDEADYYCSSYAGTNTYIFGAGTRLTVL | fluorescence intensity | [13]; [31] | 15.8 MFI
same | fluorescence intensity | [20]; [30] | 14 MFI
